Measurements published in PMC9095880, “AIMP2-DX2 provides therapeutic interface to control KRAS-driven tumorigenesis” (Nature Communications, 2022).
No constants are given. Whether binding was seen depends on the method and setting. For part of these data: Binding seen in cells or lysates may run through a third protein. Each block holds one binder with its values, some of them ahead of it.

Columns and labels:
[1] = biological target: T1, 15N-labeled DX2 51-251 (C136S, C222S) (human) (UniProt Q13155); assay: NMR titration; 1H-15N TROSY of 0.3 mM 15N-DX2 51-251 (C136S, C222S) with and without 3.0 mM peptide; 20 mM Bis-Tris pH 6.0, 100 mM NaCl, 100 mM glycine, 1 mM DTT, 1 mM PMSF; 298 K; both purified
T1 sequence (chain, 15N-labeled): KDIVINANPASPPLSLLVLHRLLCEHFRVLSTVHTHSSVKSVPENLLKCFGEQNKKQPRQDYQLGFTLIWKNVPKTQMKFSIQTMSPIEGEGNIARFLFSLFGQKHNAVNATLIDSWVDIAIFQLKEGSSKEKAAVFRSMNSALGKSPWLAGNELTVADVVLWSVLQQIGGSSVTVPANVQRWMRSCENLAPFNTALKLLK

GFP-KRAS4B = GFP-KRAS4B (UniProt P01116); assay: co-IP; co-precipitation of E3 ligases with GFP-KRAS4B in 293T cells; cellular binding of KRAS4A or 4B to Smurf2 with or without DX2

binding [1]: no binding (tested: 3.0 mM)
Binder: KKKRKSLAKRIRERC [RALA HVR peptide]

binding (GFP-KRAS4B): no binding
B1: RING-finger and CHY-zinc-finger domain-containing 1 (RCHY1) (enzyme, UniProt Q96PM5 1-261)
chain: MAATAREDGASGQERGQRGCEHYDRGCLLKAPCCDKLYTCRLCHDNNEDHQLDRFKVKEVQCINCEKIQHAQQTCEECSTLFGEYYCDICHLFDKDKKQYHCENCGICRIGPKEDFFHCLKCNLCLAMNLQGRHKCIENVSRQNCPICLEDIHTSRVVAHVLPCGHLLHRTCYEEMLKEGYRCPLCMHSALDMTRYWRQLDDEVAQTPMPSEYQNMTVDILCNDCNGRSTVQFHILGMKCKICESYNTAQAGGRRISLDQQ

binding [1]: no binding (tested: 3.0 mM)
Binder: RKLNPPDESGPGCMSCKC [HRAS HVR peptide]
